Test results: patent US20100056516A1 (priority 2006, published 2010)
pIC50: −log10 of the molar value. Some entries share one result that the patent states for a list of compounds.

These molecules were tested against HIV-1 reverse transcriptase (RNase H) (Human immunodeficiency virus type 1 group M subtype B, UniProt P04585) (assay: ASH assay: RNase H mediated RNA cleavage (ECL format, BioVeris M384)). Details: 5'-ruthenium oligo, BioVeris M384 analyzer.
Assay type: biochemical
Method: Potency of a substance as an RNase H inhibitors can be determined by measuring its ability prevent RNase H catalyzed cleavage of the RNA strand in a RNA/DNA hybrid duplex substrate. RNase H activity is measured using a substrate generated by annealing the oligoribo-nucleotide 5′-rCrCrUrCrUrCrArArArArArCrArGrGrArGrCrArGrArArArGrArCrArArG (SEQ ID NO:1) to the oligodeoxyribonucleotide 5′-Biotin-[…] (SEQ ID NO:2). […] (SEQ ID NO:3). The resulting double-stranded duplex DNA product is quantitated in an ALPHA screen format using [streptavidin- and anti-fluorescein-coated beads (Packard Bioscience) following the manufacturer's guidelines and reading on a Fusion AlphaScreen instrument. Alternatively, the released 5′-Biotinylated DNA is annealed to a complementary oligodeoxyribonucleotide: 5′-ruthenium-[…] (SEQ ID NO:3). The resulting double-stranded duplex DNA product is quantitated in an ECL screen format using Dynabeads M280 coated with streptavidin (BioVeris Corporation) following the manufacturer's guidelines and reading on a BioVeris M384 Analyzer.

Row | Structure (SMILES) | pIC50
1 | CC(c1ccccc1)N1CCN(Cc2cccc(-c3cc(=O)n(O)c4ncccc34)c2)CC1 (stereo not drawn) [Example 210, 1-hydroxy-4-(3-{[4-(1-phenylethyl)-1-piperazinyl]methyl}phenyl)-1,8-naphthyridin-2(1H-one)] | > 4.00
2 | O=c1cc(N2CCN(c3ccccc3)CC2)c2cccnc2n1O [Example 131, 1-hydroxy-4-(4-phenylpiperazin-1-yl)-1,8-naphthyridin-2(1H)-one] | > 4.00
3 | O=C1N[C@H](c2ccccc2)[C@H](c2ccccc2)Nc2c1c(=O)n(O)c1ncccc21 [Example 170, (2S, 3R)-7-hydroxy-2,3-diphenyl-3,4-dihydro-1H-[1,4]diazepino[6,5-c]-1,8-naphthyridine-5,6(2H, 7H)-dione] | > 4.00
4 | CC1CCN(Cc2cccc(CNc3cc(=O)n(O)c4ncccc34)c2)CC1 [Example 165, 1-hydroxy-4-({3-[(4-methyl-1-piperidinyl)methyl]benzyl}amino)-1,8-naphthyridin-2 (1H-one)] | > 4.00
5 | CNS(=O)(=O)c1cccc(-c2cc(=O)n(O)c3ncccc23)c1 [Example 193, 3-(1-hydroxy-2-oxo-1,2-dihydro-1,8-naphthyridin-4-yl)-N-methylbenzenesulfona-mide] | > 4.00
6 | CCOC(=O)c1c(CCc2ccccc2)c2cccnc2n(O)c1=O [Example 240, ethyl 1-hydroxy-2-oxo-4-(2-phenylethyl)-1,2-dihydro-1,8-naphthyridine-3-carboxylate] | > 4.00
7 | CC(=O)c1c(O)c2cccnc2n(O)c1=O [Example 93, 3-acetyl-1,4-dihydroxy-1,8-naphthyridin-2(1H)-one] | > 4.00
8 | O=c1c(-c2ccccc2)c(O)c2cc(-c3cccc(-c4ccccc4)c3)cnc2n1O [Example 54, 6-Biphenyl-3-yl-1,4-dihydroxy-3-phenyl-1,8-naphthyridin-2(1H)-one] | > 4.00
9 | O=c1cc(N[C@H]2CCN(Cc3ccccc3)C2)c2cccnc2n1O [Example 114, 4-{[(3S)-1-Benzylpyrrolidin-3-yl]amino}-1-hydroxy-1,8-naphthyridin-2(1H)-one] | > 4.00
10 | CCOC(=O)c1c(O)c2cc(-c3cccnc3)cnc2n(O)c1=O [Example 58, Ethyl 1,4-dihydroxy-2-oxo-6-pyridin-3-yl-1,2-dihydro-1,8-naphthyridine-3-carboxylate] | > 4.00
11 | O=c1c(-c2cccc(Br)c2)c(O)c2cccnc2n1O [Example 44, 3-(3-bromophenyl)-1,4-dihydroxy-1,8-naphthyridin-2(1H)-one] | > 4.00
12 | O=c1cc(N2CCCC(CN3CCOCC3)C2)c2cccnc2n1O (stereo not drawn) [Example 144, 1-hydroxy-4-[3-(4-morpholinylmethyl)-1-piperidinyl]-1,8-naphthyridin-2(1H-one)] | > 4.00
13 | O=c1c2cc(-c3ccccc3)ccc2c2cccnc2n1O [Example 268, 5-Hydroxy-8-phenylbenzo[c]-1,8-naphthyridin-6(5H)-one] | > 4.00
14 | O=c1cc(NC2CCN(Cc3ccccc3)C2)c2cccnc2n1O (stereo not drawn) [Example 112, 4-[(1-Benzylpyrrolidin-3-yl)amino]-1-hydroxy-1,8-naphthyridin-2(1H)-one] | > 4.00
15 | CNC(=O)c1c(N)c2cccnc2n(O)c1=O [Example 221, 4-Amino-1-hydroxy-N-methyl-2-oxo-1,2-dihydro-1,8-naphthyridine-3-carboxamide] | > 4.00
16 | CN(C)C(=O)CNCc1cccc(-c2cc(=O)n(O)c3ncccc23)c1 [Example 209, 2-{[3-(1-hydroxy-2-oxo-1,2-dihydro-1,8-naphthyridin-4-yl)benzyl]amino}-N,N-dimethylacetamide] | > 4.00
17 | CN(C)CCC(Nc1cc(=O)n(O)c2ncccc12)c1ccccc1 (stereo not drawn) [Example 158, 4-{[3-(dimethylamino)-1-phenylpropyl]amino}-10hydroxy-1,8-naphthyridin-2(1H-one)] | > 4.00
18 | CCOC(=O)c1c(O)c2cc(C(=O)NCc3cccc(OC)c3)cnc2n(O)c1=O [Example 78, Ethyl 1,4-dihydroxy-6-{[3-methoxybenzyl)amino] carbonyl}-2-oxo-1,2-dihydro-1,8-naphthyridine-3-carboxylate] | > 4.00
